Values of other authors as cited in patent US20260272967A1, “TRADITIONAL CHINESE MEDICINE COMPOSITION FOR TREATING LUNG INFLAMMATION RELATED DISEASES AND ITS USES” (XIYUAN HOSPITAL, CHINA ACADEMY OF CHINESE MEDICAL SCIENCES, priority 2023, published 2026).
At least one structure is not confirmed: it was looked up by name or label, or the drawing left a doubt.

Test system: RAW264.7 cells
Conditions: reported by NICM Health Research Institute; cited from earlier work

SMILES: COc1ccc2cc1Oc1ccc(cc1)C[C@H]1c3cc(c(OC)cc3CCN1C)Oc1c(OC)c(OC)cc3c1[C@H](C2)N(C)CC3 [tetrandrine]
- inhibiting LPS-induced NO release from RAW264.7 cells: a certain effect
